From patent US20020177621A1, “Antifungal fragrance composition” (priority 2000, published 2002)
For at least one compound, name, drawing or mass did not settle the structure.

Columns and labels:
Experiment in all cases: Fragrant vapor antifungal activity (impregnated paper disc on cover of inverted agar plate)
Format in all cases: cell-based
Conditions in all cases: 20 μl fragrance on disc, 72 hours at 27° C., compared with control
[1] = test system: Cladosporium cladosporioides IFO 6348 (Cc-1)
Procedure: (§1) Physiological saline containing 0.05% Tween-80 was added to a slant on which the test organism grew well, and a spore suspension was produced at 1×10^6 CFU (Colony Forming Units)/ml in accordance with ordinary methods. Potato dextrose agar (PDA: Nissui Pharmaceutical) was used for the medium. To begin with, 10 ml of sterile PDA was pipetted into a Petri dish and after it solidified, another 6 ml of PDA containing 1% of the above described spore suspension was overlaid and solidified to prepare the test agar plate. For the fragrance sample, if the sample is in the form of liquid at ordinary temperatures, 20 μl of liquid was directly impregnated into a paper disc (Advantech, diameter: 8 mm, thick material), while a 50% by weight ethanol solution was prepared for crystals or powder, and 40 μl of that solution was then impregnated into the paper disc.
(§2) The test agar plate was placed inversely, and the paper disc impregnated with the fragrance sample was placed in the center of the cover of the agar plate, followed by incubating for 72 hours at 27° C. Evaluation was made based on the diameter (mm) of the mold growth inhibition zone. When mold growth was inhibited over the entire surface of the agar plate, the diameter of the growth inhibition zone was reported as >85 mm. At locations where mold grew outside the inhibition zone, the diameter of the spore formation inhibition zone and the degree of growth were recorded by comparing with a control. The molds used in the test are shown in Table 1, wherein these molds consist of mold species that are isolated at high frequencies from rooms and bath rooms.
(§3) The amount of blended fragrance added to the paper discs was 20 μl each, and only the diameter of the inhibition zone (mm) is indicated for the results.

[2] = test system: Aspergillus niger IFO 9455 (An-1)
Procedure: as §1, §2, §3

[3] = test system: Aureobasidium pullulans IFO 6353 (Ap-1)
Procedure: as §1, §2, §3

`COc1ccc(C=O)cc1` [Anisaldehyde] was tested, and the “Growth: Growth status outside the inhibition zone” value [1] was “sparse”, the “Growth: Growth status outside the inhibition zone” value [2] was “good” and the “Growth: Growth status outside the inhibition zone” value [3] was “good”.
